Laboratory results taken from publication PMC10743813.
No constants are given. Whether binding was seen depends on the method and setting. In cells and extracts the contact can be indirect. Here binding means that the protein was enriched with, or labelled near, the bait; the list need not be complete.

Sequences of proteins named here, by UniProt entry; tags and fusion partners are left off. A change or cut given only in a name is not applied to a line headed by its entry.
UniProt Q23K54: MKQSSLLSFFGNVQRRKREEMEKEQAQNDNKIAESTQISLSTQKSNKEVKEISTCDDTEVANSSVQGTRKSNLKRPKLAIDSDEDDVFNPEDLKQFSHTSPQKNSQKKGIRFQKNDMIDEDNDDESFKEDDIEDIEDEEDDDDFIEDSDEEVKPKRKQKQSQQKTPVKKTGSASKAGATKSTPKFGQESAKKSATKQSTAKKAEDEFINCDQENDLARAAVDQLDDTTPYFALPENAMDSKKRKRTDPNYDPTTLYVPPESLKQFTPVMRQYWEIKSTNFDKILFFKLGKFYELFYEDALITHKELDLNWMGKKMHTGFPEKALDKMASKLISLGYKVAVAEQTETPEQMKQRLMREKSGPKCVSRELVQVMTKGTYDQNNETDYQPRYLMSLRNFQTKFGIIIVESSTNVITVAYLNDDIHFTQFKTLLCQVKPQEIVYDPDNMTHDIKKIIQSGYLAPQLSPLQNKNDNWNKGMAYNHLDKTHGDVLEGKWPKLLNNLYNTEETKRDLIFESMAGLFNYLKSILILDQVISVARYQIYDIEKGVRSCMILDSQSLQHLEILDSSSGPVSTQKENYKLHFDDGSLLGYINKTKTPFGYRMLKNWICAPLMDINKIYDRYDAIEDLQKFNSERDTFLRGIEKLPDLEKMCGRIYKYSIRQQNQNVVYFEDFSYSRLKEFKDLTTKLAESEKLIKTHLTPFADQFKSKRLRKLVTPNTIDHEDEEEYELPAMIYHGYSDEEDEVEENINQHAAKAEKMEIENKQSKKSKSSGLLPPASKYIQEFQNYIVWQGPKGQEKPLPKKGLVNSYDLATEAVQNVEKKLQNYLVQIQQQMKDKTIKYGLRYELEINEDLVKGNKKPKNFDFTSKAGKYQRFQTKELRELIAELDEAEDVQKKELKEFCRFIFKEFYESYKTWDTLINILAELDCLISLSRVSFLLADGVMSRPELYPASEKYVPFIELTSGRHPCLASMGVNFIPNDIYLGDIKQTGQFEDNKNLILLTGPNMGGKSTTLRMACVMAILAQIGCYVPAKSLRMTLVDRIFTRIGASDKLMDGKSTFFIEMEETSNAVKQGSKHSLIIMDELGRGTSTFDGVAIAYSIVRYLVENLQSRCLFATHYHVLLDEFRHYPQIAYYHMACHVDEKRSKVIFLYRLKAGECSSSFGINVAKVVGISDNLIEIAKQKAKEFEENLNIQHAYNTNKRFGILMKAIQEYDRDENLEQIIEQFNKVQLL
UniProt Q234T3: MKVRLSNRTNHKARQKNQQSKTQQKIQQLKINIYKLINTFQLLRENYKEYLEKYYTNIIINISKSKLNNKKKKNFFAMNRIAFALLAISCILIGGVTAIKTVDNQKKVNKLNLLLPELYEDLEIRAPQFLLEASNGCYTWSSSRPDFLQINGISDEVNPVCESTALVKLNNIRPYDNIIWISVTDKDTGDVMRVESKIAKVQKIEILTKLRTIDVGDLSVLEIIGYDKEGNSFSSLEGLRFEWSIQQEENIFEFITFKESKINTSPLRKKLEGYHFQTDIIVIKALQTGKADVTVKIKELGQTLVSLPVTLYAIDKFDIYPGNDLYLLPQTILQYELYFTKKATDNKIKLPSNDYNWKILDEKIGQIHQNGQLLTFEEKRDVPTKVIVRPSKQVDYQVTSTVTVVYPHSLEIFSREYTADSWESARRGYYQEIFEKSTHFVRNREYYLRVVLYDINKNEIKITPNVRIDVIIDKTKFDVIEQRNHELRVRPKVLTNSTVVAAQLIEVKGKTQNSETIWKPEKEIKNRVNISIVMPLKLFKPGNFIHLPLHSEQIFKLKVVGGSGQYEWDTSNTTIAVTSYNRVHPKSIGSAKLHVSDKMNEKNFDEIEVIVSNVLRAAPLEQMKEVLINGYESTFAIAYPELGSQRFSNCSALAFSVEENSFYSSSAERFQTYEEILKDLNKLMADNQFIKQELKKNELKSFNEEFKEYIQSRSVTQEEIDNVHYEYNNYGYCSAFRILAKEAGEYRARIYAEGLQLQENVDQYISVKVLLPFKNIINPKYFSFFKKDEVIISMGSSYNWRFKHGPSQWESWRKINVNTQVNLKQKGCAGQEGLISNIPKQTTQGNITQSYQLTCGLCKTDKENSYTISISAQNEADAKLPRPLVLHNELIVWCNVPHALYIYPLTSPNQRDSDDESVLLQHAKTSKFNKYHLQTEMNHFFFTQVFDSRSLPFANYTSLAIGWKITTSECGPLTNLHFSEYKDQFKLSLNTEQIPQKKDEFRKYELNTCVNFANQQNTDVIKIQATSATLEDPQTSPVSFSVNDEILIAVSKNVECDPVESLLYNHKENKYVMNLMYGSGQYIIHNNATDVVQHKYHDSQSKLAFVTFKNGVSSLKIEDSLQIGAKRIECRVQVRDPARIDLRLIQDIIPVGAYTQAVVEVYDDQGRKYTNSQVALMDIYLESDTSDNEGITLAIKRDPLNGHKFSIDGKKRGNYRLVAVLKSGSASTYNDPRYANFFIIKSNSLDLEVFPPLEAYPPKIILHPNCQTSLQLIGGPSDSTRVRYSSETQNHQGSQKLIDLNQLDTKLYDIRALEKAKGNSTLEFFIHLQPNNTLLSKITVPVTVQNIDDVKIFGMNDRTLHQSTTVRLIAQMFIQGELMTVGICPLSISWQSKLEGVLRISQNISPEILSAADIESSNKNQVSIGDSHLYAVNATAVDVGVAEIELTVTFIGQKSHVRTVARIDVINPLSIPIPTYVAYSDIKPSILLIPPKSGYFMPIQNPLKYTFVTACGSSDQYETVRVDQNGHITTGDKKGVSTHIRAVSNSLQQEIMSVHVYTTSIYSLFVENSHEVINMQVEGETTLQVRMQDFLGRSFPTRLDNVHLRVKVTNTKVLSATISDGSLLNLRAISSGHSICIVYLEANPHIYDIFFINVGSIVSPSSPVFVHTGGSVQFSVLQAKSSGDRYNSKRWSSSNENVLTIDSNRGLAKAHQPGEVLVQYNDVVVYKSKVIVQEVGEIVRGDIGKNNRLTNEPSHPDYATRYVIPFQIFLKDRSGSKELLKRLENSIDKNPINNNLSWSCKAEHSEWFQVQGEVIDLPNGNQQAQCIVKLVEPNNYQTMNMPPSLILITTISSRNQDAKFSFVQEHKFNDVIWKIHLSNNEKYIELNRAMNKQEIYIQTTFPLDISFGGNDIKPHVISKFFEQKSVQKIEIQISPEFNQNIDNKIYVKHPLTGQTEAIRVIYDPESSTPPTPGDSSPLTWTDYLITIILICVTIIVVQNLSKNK
UniProt Q245Y3: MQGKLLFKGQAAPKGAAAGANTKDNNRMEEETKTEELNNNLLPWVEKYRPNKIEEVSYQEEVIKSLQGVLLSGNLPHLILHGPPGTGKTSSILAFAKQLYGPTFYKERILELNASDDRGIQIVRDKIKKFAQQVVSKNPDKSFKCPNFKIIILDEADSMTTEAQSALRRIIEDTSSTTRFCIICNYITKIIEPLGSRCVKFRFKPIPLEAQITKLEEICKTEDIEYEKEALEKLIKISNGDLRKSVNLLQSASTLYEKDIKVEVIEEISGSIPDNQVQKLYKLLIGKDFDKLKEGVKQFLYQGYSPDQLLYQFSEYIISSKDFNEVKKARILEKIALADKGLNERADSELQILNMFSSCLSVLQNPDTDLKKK
UniProt I7MAA0: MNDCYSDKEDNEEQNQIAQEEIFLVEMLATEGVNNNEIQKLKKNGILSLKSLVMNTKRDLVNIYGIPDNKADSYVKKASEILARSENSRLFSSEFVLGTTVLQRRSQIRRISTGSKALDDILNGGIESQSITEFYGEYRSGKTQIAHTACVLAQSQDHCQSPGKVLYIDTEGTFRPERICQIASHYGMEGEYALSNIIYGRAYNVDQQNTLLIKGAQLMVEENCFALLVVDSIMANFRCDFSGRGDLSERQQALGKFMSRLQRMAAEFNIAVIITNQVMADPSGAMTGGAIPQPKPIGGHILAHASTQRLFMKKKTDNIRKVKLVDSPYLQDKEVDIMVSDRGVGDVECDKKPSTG
UniProt I7MM90: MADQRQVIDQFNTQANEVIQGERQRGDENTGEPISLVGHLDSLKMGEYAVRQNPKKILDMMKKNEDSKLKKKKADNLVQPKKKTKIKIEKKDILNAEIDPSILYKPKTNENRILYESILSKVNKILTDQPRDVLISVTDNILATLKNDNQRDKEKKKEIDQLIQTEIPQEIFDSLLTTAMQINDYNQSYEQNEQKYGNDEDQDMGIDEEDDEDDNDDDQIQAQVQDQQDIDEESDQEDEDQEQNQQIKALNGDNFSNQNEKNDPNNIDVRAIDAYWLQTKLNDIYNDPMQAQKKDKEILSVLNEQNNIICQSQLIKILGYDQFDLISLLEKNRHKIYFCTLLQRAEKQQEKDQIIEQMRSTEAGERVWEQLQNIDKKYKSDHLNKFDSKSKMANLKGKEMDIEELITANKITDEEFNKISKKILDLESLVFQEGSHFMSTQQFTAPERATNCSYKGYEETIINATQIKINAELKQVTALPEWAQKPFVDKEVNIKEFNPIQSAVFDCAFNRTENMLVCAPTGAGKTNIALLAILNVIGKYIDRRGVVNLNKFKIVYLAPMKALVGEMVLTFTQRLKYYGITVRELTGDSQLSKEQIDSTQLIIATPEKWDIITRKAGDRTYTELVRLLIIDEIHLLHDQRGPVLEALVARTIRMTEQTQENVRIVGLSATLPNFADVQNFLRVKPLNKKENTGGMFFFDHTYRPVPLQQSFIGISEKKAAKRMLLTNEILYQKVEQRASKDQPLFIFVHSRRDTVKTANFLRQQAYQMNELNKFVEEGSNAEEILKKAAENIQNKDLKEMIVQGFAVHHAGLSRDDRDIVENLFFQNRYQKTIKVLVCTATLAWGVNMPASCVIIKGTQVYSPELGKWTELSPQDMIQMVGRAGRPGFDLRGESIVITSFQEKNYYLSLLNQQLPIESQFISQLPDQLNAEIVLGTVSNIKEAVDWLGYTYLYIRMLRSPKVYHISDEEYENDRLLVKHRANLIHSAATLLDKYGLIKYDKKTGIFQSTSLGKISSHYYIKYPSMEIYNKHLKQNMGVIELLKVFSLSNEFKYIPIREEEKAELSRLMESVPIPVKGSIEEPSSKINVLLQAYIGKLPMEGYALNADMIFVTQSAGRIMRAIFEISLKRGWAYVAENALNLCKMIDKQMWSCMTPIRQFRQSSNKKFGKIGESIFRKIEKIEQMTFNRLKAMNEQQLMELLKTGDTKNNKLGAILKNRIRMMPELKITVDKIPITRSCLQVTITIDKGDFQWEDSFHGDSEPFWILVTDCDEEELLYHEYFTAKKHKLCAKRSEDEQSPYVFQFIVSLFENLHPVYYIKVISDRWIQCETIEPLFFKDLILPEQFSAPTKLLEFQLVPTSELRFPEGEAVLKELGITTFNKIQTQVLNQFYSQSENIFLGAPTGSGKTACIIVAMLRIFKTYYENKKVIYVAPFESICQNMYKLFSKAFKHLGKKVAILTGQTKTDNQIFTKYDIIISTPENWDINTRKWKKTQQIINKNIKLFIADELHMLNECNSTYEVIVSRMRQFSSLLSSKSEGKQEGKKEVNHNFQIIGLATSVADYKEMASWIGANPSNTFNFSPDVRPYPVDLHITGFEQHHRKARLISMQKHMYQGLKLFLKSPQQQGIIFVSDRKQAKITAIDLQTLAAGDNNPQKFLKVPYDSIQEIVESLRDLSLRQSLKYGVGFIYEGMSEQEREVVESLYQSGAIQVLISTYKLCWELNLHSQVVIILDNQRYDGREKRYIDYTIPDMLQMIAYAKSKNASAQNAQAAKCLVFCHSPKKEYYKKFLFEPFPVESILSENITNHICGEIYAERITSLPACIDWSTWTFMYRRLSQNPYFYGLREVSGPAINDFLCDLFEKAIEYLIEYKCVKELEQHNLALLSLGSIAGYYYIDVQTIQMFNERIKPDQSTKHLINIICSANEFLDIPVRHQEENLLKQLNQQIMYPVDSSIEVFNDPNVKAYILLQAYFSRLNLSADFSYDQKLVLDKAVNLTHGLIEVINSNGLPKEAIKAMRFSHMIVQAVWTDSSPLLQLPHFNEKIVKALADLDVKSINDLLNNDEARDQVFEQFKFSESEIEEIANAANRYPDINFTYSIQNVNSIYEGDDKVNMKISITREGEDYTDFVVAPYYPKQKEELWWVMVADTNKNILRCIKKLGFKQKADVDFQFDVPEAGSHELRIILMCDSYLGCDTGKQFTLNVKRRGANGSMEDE

Molecular target: Msh6^Tt-3HA (T. thermophila) (UniProt Q23K54)
Test: affinity purification with mass spectrometry; 3 h of conjugation; cells lysed by sonication on ice in PBS; Msh6^Tt-3HA precipitated by its HA tag (Pierce HA-Tagged Magnetic IP/Co-IP kit), washes TBS and TBS-T; LC-MS/MS, MaxQuant iBAQ; WT lysate without HA tag as blank control; hits: iBAQ WT/iBAQ Msh6^Tt-3HA <= 0.05

Molecule	binding
DYH3 dynein heavy chain outer arm protein (from UniProt Q22A67 1-4620)	binds
Tpa1 (from UniProt Q245Y8)	binds
TTHERM_00101160 (from UniProt Q234T3 1-2004)	binds
replication factor C subunit Rfc2 (from UniProt Q245Y3)	binds
Dyh7 (from UniProt Q23TU2)	binds
Dmc1 (from UniProt I7MAA0)	binds
TTHERM_00313630 (from UniProt Q22KB8 1-1566)	binds
TTHERM_01345820 (protein, UniProt Q229R4 1-1227) MIVKFETKSKRVKGLAFHPIRPWLLSALHTGQIQLWDYRLKTLLDEFVDHDGPVRGIDFHSSQPLFVSGGDDFKIRVWNYKLKKCLFIMKGHLDYIRTVQFHKELPWIVSASDDQTIRIWNWQSRSMIAILTGHSHYVMCAKFHPTQDLIVSCSLDQTLRIWDFSATRKKSMQSNSKTQTQNFGANEVEVHSVLETHERGVNWCDFHPDMNLIVSGADDRKIKLWKFNESRAWDHDSLYGHKNNVSSVVFHPKLNLIISNSEDKTTKVWDLNRRVAISTFTRDNDRFWVIAVHPQNLTFASGCDNGFYVFSLFSDKMPQSLPDPNCLLFGFRKQIKAYNFVKKSITVSKEFESQATIIQENINFFQQNPFETSQAQFLVGTDTKEKSIYKFYLLTYNTNNYDDLQKEREDCKTFTGKGAVFVSKNKIARIKENRTVEIYNFDLSTQSNPISDITDVNRVFSGPIGNVIFSTDESLILYNITTKKEIGKIPMKAEYKVKNAYWNKNNTMVALVAKKSIHVMNKNLGKICTINEKFNVKSLIWHGNVLIYTTINHLKFGLLNGDSGIIKCIDENLKAVKVEGNTFFGINPSAEIVTININTEELQLKKSLFDKNWEKIKYYMDANNKLGNSVISYLYKKNYSGIALNLVNDPKTKFSLAINSGNLEQAFKCAKELKDKEIWAKLAQEAIRQGDHQIIEIAYQNIKEYEKLSFLYTVCGKTEYLKKMLEISQKRGDIMSRFSNSLYLGNIEERIKILADSNQLALAYLMAVAHNKSEYAETLKKGMEQVPDIQQLKQFKMSALVPPKPLVKIIESSPQAQRKWPQNHIPEEYMVVLADQDNQEQQTNLPENAVQQNIVDEEPAAIDDDAKKQDNAKPNFANQVDDEEFEDAGDVWPDVELPDDVDIPDSGPQATEQTPITSNFIQPESKLLKTVKQSLIPSNHIIFGFFENAFSFWKKQLGIYNFDPLLSEAIKVATSSLTVISSIPYVQSSISPIHQDNKPFVCRNLNSLEILLKKAQRFTTEGKFQESENAFYDILHSIPFVKLQKESEINDIKSLIQICFNYIMAMKCELRKNQEQDRTFELQCYMAICNLKPIHRVLTLKQAMSAAYKNKNFIYCSYFAKKLIRVVEANPNAAKPEVLQSAQKFLRACETQGTNAQQIVFDDAWLYDDDATYNIDPSTMKINKNVKEAAKCPYCTAKVDQSLNETICPLCNLGKIGAQVIGIKLDQ	binds
TTHERM_00463420 (protein, UniProt Q23PU1 1-859) MLRSEKMSLHCLLMPRESAWEVLNDLGTLDKVHFVDCEEDVPQFNRPFYQQVRRCDESLQKLLWIENEMQKFYNFYNQVIKSNNQVNIDYCGDLASFHEYLKKDVESRRINEQAYFLQIENEINQKHKFLEQLIHNFNSVITYRNQLVEKKHVLTEASRVLNVNQLNQDNQIPNPDRVSLNFLAGVINADDEVRFHKSAFRVSRGNIWKHFKQIDKSMQRDGYKLLNIKGQRDHDTSELTDPYNSVQKTIFILAYASGQNSSLDRKLRRICEGFHADVFNIQYSNISKDLKETEEQIRNQNLTVQLSEKSINEYFDFYQKSIKLQSGDQVVDVCSYIEYVRLFLHKEKTIQHNLNYLVQSSQTFCKGLIWVPEEDEGIVQRRVEQLTQKKSNSVQVAQLYKLSNYTIDPPTKFKSNDFTIPFQEIVNTYGIPRYREINPALFAISTFPYLFGMMFGDIGHGALLFTIGLYLMSCKIDPKRPSAMDGLVQARYLITLMGLFALYNGLIYNDFMSLPLNLFGSCYLLADKNVVLTHKTSKQCVYPFGIDPVWGVAKNKLSVYNSLKMKTSVVFGVFQMLIGIFLKGLNAINNISFVDFFFEFIPQVVFMCCTFGYMVFLIFMKWMTDYSQNTSKAPSILTYMLDLGLSGGGVGHQQELYKGQGVDQPYLLIAALISVPIMLLAKPIIHQMQHNSHQQHQNAEGFVPFQDDIEENRRQADNFIEKGLKLHKNEKPHEFSEEFVHQVIETIEFVLGSISHTASYLRLWALSLAHSQLAEVFFEKTLKGQIESGSTIGILVGFIVFAMITFAVLMCMDVMECFLHTLRLHWVEFQSKFYKADGYLFKPFSVNNVLSVAAVEKRY	binds

The remaining lines, values ahead:

binding	Molecule
binds	Drh34 (from UniProt I7MM90)
binds	TTHERM_00295120 (protein, UniProt I7LUE5 1-774) MQEDVDQERLLDQARQKVKEQAYFMKKALDQVNLRDGLRHASTMLEELGVREQVQLNPKNYYIVFMQIFDELRTLEQYFKEEYRRGRKMMDLYESVQHATKLIPRLYLLITVGSVYIQTHEVGAKEILLDLLEMIKAVQHPTRGLFLRYYFLKMCKDRLPDKDSEYFGEGGDVDDCINIITRNLNEMNKLWIRMSGKSRDKPRREKERVDLKITVGENIHRLSSLEGVNSEIYQTTVLPKLLDLIVSSKDAISQNYLIDCVISCFPDEYHLITLHDILGVCTTQLEPKVDIKSIFISLMDRLAEYALRSEDVQATFNSDNHIYSMFKNNIDNLVERSSSTEFKNVLDLMVAFLKFSLRCYSSNGDYVNQILKSCVKICEKQHEQDFQDDCLKNIVKFLTMPLETMSLTILTMDEYPNLMKYLPFSKRRQVAQKITQAVVSLKRNINDQKIAEQLVLFIHPLLVTEKDYIEVSQNDFEEEQNLVCKMLHLVHHDDAQEYWNILRLFFDNFQKGEIKRQKFTYPTMFYALAKFTRSVYEKNQQNEVLNYNNIFEIMKQLIETLAQEYHSLALKLYIQFILIINEFDHEKTLDEFTYDIATTALTIYQDDLGDADIKLQAIQVISGALNKVSCLSEENYDTLSSNTTQYSAKLLKKQDQVLSILNCTHLFHGELIKDEESVKKCLKKAIKIAQTLLKTQNKSINLYIYILNRYFVFWNYVQFDAAEVQELINIINEKIGTLEKSAETDALQKYWRNTVQYIKSKQEQNIAGFAELHV
binds	TTHERM_00586710 (protein, UniProt I7M8T5 1-694) MSNDNKSNASSRLSALNSQMPELSPSQLLHSYRNRSKVDRQGLYETFYGPKWEFRNKVYDIICNNSEKFSAPYIDEHDRERTRYAAFKELHFIQKSLNMGYAEYQKDPHAFSMTSNAVYSWSPAICVKYGVHFSLYGKTLMNLGTEKHLPYIYRMMKLEDIGSFGLTEMGHGSNVRGIKTTAIYDPQSNEFIINTPEEVDMKFWIGATAQLANMTVCWAQLYVEGKCHGVHAFLVPIRNKDTHRVMPGITVGDCGPKNGLDGIDNGFMIFHNVRIPYDNLLDKFSQIENGKFKTWIESDDKRFGFQMASLSGGRVQVACNSNQNSIIAVAIAGRYSTIRKQFGAPGKPEQPIIEYPLTQYRIIPNVATAIVLQLSTITLSILWDENQKHLLDVKNTLINELHAISSAIKAISTWTAQRIITESRQILGGHGFSTFNRFGQLYNDNDVNVTWEGDNNVLLQQTGKFLLDSAKKLMKGKKLPFKCTSYISLDPAEGQQSELNSNEDFFNQGKLLKALQWRVNLLLQKTGLKMQEYMQVSKNGWDAFNNAQPFYSVELAKAFGDTWSAEQAIETISKVQNPENKRVLSDFVTLYLLETINKDIGNFRFGGYINCQQYEQIRSSILKLCNKLKDEFIAVLDALAPPDFILQAPFGASDGDIYNRYIGLIYSAKSTFKRPDWWKEVHKAHKKYHFEIDA
binds	TTHERM_00387080 (protein, UniProt Q23RI2 1-1074) MHGYFILIIILYLFIYLLIFSVLNNFLNQKMISVDSLLFLANLNQISFQDFQQFIDKKQNKYKKKVNSNLMSRVYNNLEVGDSIENTIPTGFQIRKEQLSDLFQPDSIREGQSLKQIEDIGNVEGLLKILKTHQKKGIDTSDTSISDRIQAFGQNENITKPPKTFFELVMECLEDDVLRILCVACFVSLVIGCIKQGIAEGWIDGIGIFIAVFIIVTITSVNNYMKDKQFRKLNAQVAQRDVGVIRNGETVHISIYSLLVGDIMHIETGEVFPVDGFLIQGSNLVCDESSITGESDPIKKYSIGEHAKNPQPFLISGSKVIEGSGLMVVLAVGQMSRVGKQQALMNEEEEEEKKTPLQEKLDVFVEKIGNIGFKWAFITVLCMILNLLYTIYSSNDLKLLSIDTLSEIVDFIIVGITVVVIAVPEGLPLAVTLSLAYAVGKMKDENNLVRNLISCEIMGGADTICSDKTGTLTENKMKVKKMYALEEVHSEFERQSFDQNFVNILTEGISVNSNAFPKIDDGKFEYNGNKTECALLELAYKFQVNYRDFRPSDNIIKVIPFSSARKRMTTVCRSKKGVQGTLRVYTKGAPEILIEQCSRFVNKNGQIQQISQQFLQKFQDIQQKFSNECLRTLLLAYKEIPYMDADQLPEENQIEQDFIVLGMVGIQDPLRRGIRDSVRVCSNAGVTVRMVTGDNKETAIAISKEAGIISQDYSTSDGGYTVMEGKQFRELVGGLQEIRGEDGKIQRYEVGNIDAFKDIIQDLRVLARSSPEDKFLLVTGLQKCDSVVAVTGDGTNDAPALKKADIGFAMGISGTEVAKEAAGIILIDDNFSSTITAIKWGRNIFDCIRKFLQFQLTINVVALFMAFLGGLVFRESPFNTIQILWVNLMQDTLAALALATEPPNDELLQRKPVKRTDAIVTPNMWKGIILQSLYQIVVLCIILFNGPSLFGVDNGIQNKDWTEENGVHLTMFFNIFVFLSVFNEINCRKLKSSEINVFQGFFNNPLFLFIIVSTIFVQIIMVQLGGRVAKCSPLSLEQNIICILVGASSVAAGIVIKLLPSSLDRLLNHTNPFQ
binds	TTHERM_00418280 (protein, UniProt Q22NW7 1-888) MLSRGVKNLISLQKSYLQSKNFIGLTLRNKYYFRNNNNDEGEDRAPEGFEKFKRRSKKKADQSQGEQTVEQLEKENRKDKEEVEETEDVSASKQKQVNEEDDDPFKKFNRKSNNDKQSSKSSKQSVEKKEESSTESKQQDNQEVNKDESDKNKKDWSFTYSPKIFGFEDKNSKKKDEQKNKQEENQNEKKDDEKEDHNEHENKRKNEDSSQSEFAKKFKEFWNSGNNKKYISAAIAISILGPSLYYQYETQQYISYTEFYKNYLQTDNVRSIAIQRLPIGNNLKTYAKIVTKDGSVKKIVLGNVDHFLEQVEQYQVEKGRDIETLIPISFEYLVDLNKTLDYSFSWLSTMATIAIGYLFYKSMKSGLGSMKGGGGGQDIFGMGKSNVKVFGIDSKVTTRFKDVAGQDEAKQEIQEFVDFLKKPAKYKAIGAKLPKGALLTGPPGTGKTLLAKACAGEAGVPFFFISGSDFVEMFVGVGASRVRDLFKQAKQQSPSIIFIDEIDAVGRKRENKMGGNDERDNTLNQLLVEMDGFGTDANVIVLAATNRKELLDPALTRPGRFDRTIEVTNPDIDGRKQIFMVHLKPLKLHPSKTMEEYAKRLATLTPGFSGADIMNLCNEAAIMAARKNKKFIESIDFELASERVIAGLEKKRIVSEEERKIVAVHESGHAVTSWFLEGGHPLLKLTIIPRTKGSLGFAQYLPNESSLESKEELLDRLCTILGGRCAEEEFFGKITTGAYDDLKRAYELCHALVTKYGMSEKLGYVGYIENDYSKTYSDQTNTLIDEEIKRLIDEATQRTRDLIKKYRSQIEGLSSALLEKETLDLRQISTILGERPFPPKSNYKAYLELQVQDDAEKVQEQAESTIEGESNTHENKEKENASAEKASQ
